Measurements reported in PubChem BioAssay AID1259308 (NCATS, 2017).
Here is an unselected part of about 59,000 reagents tested. In the full data, about 1,510 (2.6%) got an active call. 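Calls use total luciferase alone and ignore viability, so some active siRNAs may act by altering cell number.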 A number with no mark means an inactive call. Reagents against one gene are numbered here.

Test: 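Knock-downs that increase output of a recombinant reporter protein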 (primary screen)
System: human HEK293 embryonic kidney cells stably expressing firefly luciferase (HEK-CMV-Luc2-Hygro)
Reagent: single siRNA against human genes, 0.8 pmol siRNA per well
Duration: 72 h
Measured: 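Luciferase light (ONE-Glo) measured on one replicate plate set and viability (CellTiter-Glo) on the other, scaled to a negative control siRNA, with robust z-scores and luciferase per cell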
Scale: total luciferase, z-score and total luciferase, % of control: higher = more reporter protein produced; luciferase per cell, z-score: higher = more reporter output per viable cell; viable cells, % of control: higher = more viable cells
Active means: 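Active when the median/MAD z-score for overall luciferase is greater than 3; a gene was taken forward for validation with new siRNAs if at least two of its three siRNAs passed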
Meaning of the calls: active = raised luciferase; inactive = no rise

Gene	reagent no.	total luciferase, z-score	total luciferase, % of control	luciferase per cell, z-score	viable cells, % of control
METTL25B (GeneID 51093)	1	0.494	91.7	-0.249	109
METTL25B (GeneID 51093)	2	1.12	104	0.161	112
METTL25B (GeneID 51093)	3	4.9 (active)	179	3.97	70.5
KLC1 (GeneID 3831)	1	2.23	126	1.33	99.5
KLC1 (GeneID 3831)	2	-0.823	65.5	-0.659	87.1
KLC1 (GeneID 3831)	3	-0.393	74.1	-0.978	107
AMER2 (GeneID 219287)	1	-0.0781	80.3	-0.202	94.7
AMER2 (GeneID 219287)	2	1.15	105	1.48	79.2
AMER2 (GeneID 219287)	3	0.955	101	1.2	82.1
ZCCHC17 (GeneID 51538)	1	0.226	86.4	-0.0179	97
ZCCHC17 (GeneID 51538)	2	-1.7	48.1	-1.46	78.9
ZCCHC17 (GeneID 51538)	3	2.23	126	1.36	98.8
NACC1 (GeneID 112939)	1	-1.97	42.6	-1.2	65.3
NACC1 (GeneID 112939)	2	0.396	89.8	1.09	75.3
NACC1 (GeneID 112939)	3	-0.442	73.1	-0.837	102
DUSP13B (GeneID 51207)	1	-0.17	78.5	0.118	85
DUSP13B (GeneID 51207)	2	1.26	107	0.931	93.6
DUSP13B (GeneID 51207)	3	-0.323	75.5	-0.424	94.3
ARF6 (GeneID 382)	1	-0.679	68.4	-0.593	89.3
ARF6 (GeneID 382)	2	-0.0405	81.1	-0.361	99.6
ARF6 (GeneID 382)	3	-1.29	56.2	-2.08	109
NUAK2 (GeneID 81788)	1	1.27	107	1.63	78
NUAK2 (GeneID 81788)	2	-0.309	75.7	-0.83	105
NUAK2 (GeneID 81788)	3	1.76	117	1.67	84

Records listed so far whose target name begins with D or d:
Gene	reagent no.	total luciferase, z-score	total luciferase, % of control	luciferase per cell, z-score	viable cells, % of control
DUSP13B (GeneID 51207)	1	-0.17	78.5	0.118	85
DUSP13B (GeneID 51207)	2	1.26	107	0.931	93.6
DUSP13B (GeneID 51207)	3	-0.323	75.5	-0.424	94.3
